Measured values reported in PubChem BioAssay AID540276 (National Center for Advancing Translational Sciences (NCATS), 2011).
Out of some 300,000 compounds screened, about 5,400 (1.8%) were called active. Inconclusive results, whose numbers are uncertain, are shown with a selection of clear calls. The call rests on the fitted dose curve; tested in HEK293 cells. Potencies beside an inconclusive call are fits to weak or partial responses and may not hold up.

test: qHTS for inhibitors of binding or entry into cells for Marburg Virus; settings: Marburg virus pseudotyped entry inhibition, cell reporter; activity change, negative = inhibition: at 37.8 µM (top of the series) unless noted
On the % scale 0 is the no-effect control and ±100 the full control effect; potency means the concentration at half of the fitted maximal effect.

Row | SMILES | Potency | activity change, negative = inhibition
1 | COc1cc2c(cc1OC)-c1cc(=Nc3c(C)cc(C)cc3C)n(C)c(=O)n1CC2 | inconclusive: 0.398 µM [inhibitor, partial curve, poor fit] | –
2 | CC(=O)c1ccc(NC(=O)Nc2ccc(S(=O)(=O)N3CCCC3)cc2)cc1 | – | inactive: 1.48%
3 | COC(=O)c1cnn(-c2ccc(F)cc2F)c1/C=N/NC(=S)NC(C)(C)C | inconclusive: 4.47 µM [inhibitor, partial curve, poor fit] | –
4 | N/C(=N\OC(=O)c1ccc(Cl)cc1[N+](=O)[O-])c1ccccn1 | inconclusive: 35.5 µM [inhibitor, single point] | –
5 | CCc1nc(C)cn1S(=O)(=O)c1cc(OC)c(C)cc1C | inconclusive: 11.2 µM [inhibitor, single point] | –
6 | Clc1ccc2nc(C3CCN(Cc4ccccc4)CC3)[nH]c2c1 | inconclusive: 14.6 µM [inhibitor, partial curve] | –
7 | CCc1cc(=O)oc2cc3occ(C)c3cc12 | – | inactive: -4.34%
8 | Cc1cc(-c2n[nH]c(=S)n2Cc2ccco2)nn1C | inconclusive: 3.16 µM [activator, single point] | –
9 | O=C(Nc1cccc(F)c1)c1cc(S(=O)(=O)NCCC2=CCCCC2)ccc1F | inconclusive: 6.31 µM [inhibitor, full curve, poor fit] | –
10 | Cn1nnnc1SCCCNCc1cc(Br)ccc1OCc1ccccc1 | inconclusive: 22.4 µM [inhibitor, single point] | –
11 | CCCCCn1c(=O)c(F)cn(Cc2ccc(OC)c([N+](=O)[O-])c2)c1=O | inconclusive: 2.31 µM [inhibitor, partial curve, poor fit] | –
12 | Cc1c(N=C2NC(=O)/C(=C/c3ccc(O)cc3)S2)c(=O)n(-c2ccccc2)n1C | inconclusive: 0.1 µM [activator, full curve, poor fit] | –
13 | CC(C)CCNC(=O)C(c1ccncc1)N(Cc1cccs1)C(=O)Cn1nnc(-c2ccc(F)cc2)n1 (stereo not given) | – | inactive: -32.9%
14 | O=C(/C=C/Nc1ccc([N+](=O)[O-])cc1Br)c1cccc2ccccc12 | inconclusive: 3.66 µM [activator, full curve, poor fit] | –
15 | CCOC(=O)c1cnn(-c2ccccc2)c1NC(=O)CCl | inconclusive: 2.51 µM [inhibitor, partial curve, poor fit] | –
16 | Cn1c(O)c(C=Nc2ccc(N3CCOCC3)cc2)c(=O)n(C)c1=S | inconclusive: 3.16 µM [activator, partial curve, poor fit] | –
17 | COc1cc2c(cc1NC(=O)/C=C/c1ccc([N+](=O)[O-])cc1)oc1ccccc12 | – | inactive: 1.31%
18 | CCN(CC)S(=O)(=O)c1ccc(O)c(C(=O)OCC(=O)Nc2ccc(OC(F)(F)F)cc2)c1 | inconclusive: 35.5 µM [inhibitor, single point] | –
19 | CC(C)C1=Nc2cccc3cccc(c23)N1 | inconclusive: 1.26 µM [inhibitor, single point] | –
20 | COc1cccc(/C=C/c2ccncc2)c1OC | inconclusive: 4.47 µM [inhibitor, partial curve, poor fit] | –
21 | COC(=O)C1CCN(C(=O)Cc2ccc(OC)c(OC)c2)CC1 | inconclusive: 35.5 µM [activator, partial curve, poor fit] | –
22 | Clc1ccc(-n2nnnc2-c2cnc3ccccc3c2-c2ccccc2)cc1 | – | inactive: -33.9%

Row | SMILES | Potency | activity change, negative = inhibition
23 | CCCCOC(=O)C1=C(C)NC2=C(C(=O)CCC2)C1c1cc(OC)ccc1OC (stereo not given) | inconclusive: 11.2 µM [inhibitor, partial curve, poor fit] | –
24 | CCOc1ccc(Nc2nc(Cc3nnc(SCC(=O)N(CC)CC)n3C)cs2)cc1 | inconclusive: 35.5 µM [activator, single point] | –
25 | CCOC(=O)/C(C#N)=C\N(C)C | inconclusive: 1.58 µM [inhibitor, partial curve] | –
26 | COc1ccc(OC)c(CN(CCN2CCOCC2)C(=O)Nc2ccccc2)c1 | inconclusive: 4.61 µM [activator, partial curve, poor fit] | –
27 | O=C1CCCN1CCCNC(=S)Nc1ccc(Nc2ccccc2)cc1 | inconclusive: 35.5 µM [inhibitor, single point] | –
28 | COc1ccc2nc(NC(=O)CSc3nc(C)cc(C)n3)sc2c1 | inconclusive: 20.6 µM [inhibitor, single point] | –
29 | COc1ccc(N2CCN(C(CNC(=O)c3cccs3)c3ccco3)CC2)cc1 (stereo not given) | inconclusive: 1.26 µM [activator, full curve, poor fit] | –
30 | CC(=O)OC(C(=O)NC1CCCCC1)c1ccccc1 (stereo not given) | – | inactive: 5.06% [at 46.1 µM]
31 | COc1cc(=O)[nH]c(SC(C)C(=O)Nc2cccc3ccccc23)n1 (stereo not given) | – | inactive: 15.4% [at 46.1 µM]
32 | CC(C)(C)n1nnnc1C(c1cc2cc3c(cc2[nH]c1=O)OCO3)N1CCN(c2ccccc2)CC1 (stereo not given) | inconclusive: 5.17 µM [inhibitor, full curve] | –
33 | CCn1nc(C)c(NC(=O)CCCSc2nc(-c3ccco3)cc(C(F)(F)F)n2)c1C | inconclusive: 10 µM [inhibitor, partial curve, poor fit] | –
34 | Cc1nc2c3cccnc3nn2c(C)c1CCC(=O)NCc1ccccc1Cl | inconclusive: 3.55 µM [activator, partial curve, poor fit] | –
35 | Cc1ccc(SCc2c(C#N)c3ccccc3n2C)cc1 | inconclusive: 31.6 µM [activator, single point] | –
36 | O=C(NNC(=O)c1cc(Br)ccc1O)c1csc(N2CCOCC2)n1 | inconclusive: 25.1 µM [inhibitor, single point] | –
37 | Cc1noc(C)c1S(=O)(=O)N1CCCC(C(=O)NC2CCCCC2)C1 (stereo not given) | inconclusive: 0.92 µM [inhibitor, partial curve, poor fit] | –
38 | CCc1cc2c(nc1CC)CCN(CC/C(C)=N/OCC[C@@H]1C=C[C@H](OC(C)=O)[C@@H](COC(C)=O)O1)C2 | inconclusive: 0.299 µM [inhibitor, partial curve, poor fit] | –
39 | COc1ccc(Cc2nnc(NC(=O)CS(=O)(=O)c3ccccc3)s2)cc1OC | – | inactive: 17.4% [at 46.1 µM]
40 | O=C(CC1C(=O)OCCN1Cc1ccccc1)Nc1cccc(Cl)c1 (stereo not given) | – | inactive: 6.82% [at 46.1 µM]
41 | C=CS(=O)c1sc(Cl)c(N2CCOCC2)c1[N+](=O)[O-] (stereo not given) | inconclusive: 11.2 µM [inhibitor, partial curve, poor fit] | –
42 | CCOC(=O)N1N=C(c2ccccc2)CC1(O)C(F)(F)F (stereo not given) | inconclusive: 6.31 µM [activator, single point] | –
43 | COc1ccc(-n2c(-c3ccccc3F)nc3c(cnn3-c3ccc(C)cc3)c2=O)cc1 | inconclusive: 2.51 µM [inhibitor, partial curve, poor fit] | –
44 | Cc1ccc(/C(=N\O)c2oc3c(C)c4oc(=O)cc(C)c4cc3c2C)cc1 | active: 2.91 µM | –

Row | SMILES | Potency | activity change, negative = inhibition
45 | C=CCn1c(C)c(C(C)=O)c(N2CCOCC2)nc1=S | – | inactive: -7.46% [at 46.1 µM]
46 | Cc1ccc(CCNC(=O)C2CCC(=O)N2CCc2ccccc2)cc1 (stereo not given) | inconclusive: 2.82 µM [inhibitor, partial curve, poor fit] | –
47 | CCN(CC)S(=O)(=O)c1ccc2nc(NC(=O)c3cccs3)sc2c1 | inactive | –
48 | Cc1cc(C)cc(N(C(=O)c2csnn2)C(C(=O)NC2CCCCC2)c2ccncc2)c1 (stereo not given) | inconclusive: 20 µM [inhibitor, single point] | –
49 | Cc1ccc2[nH]c3c(N4CCOCC4)ncnc3c2c1 | inactive | –
50 | COc1cccc(CN(C)C(=O)CNC(=O)c2sc3ccccc3c2Cl)c1OC | – | inactive: -8.67%
51 | O=C(NC(=S)Nc1ccc(CN2CCCCC2)cc1)c1cccc(OCc2ccccc2)c1 | inconclusive: 7.08 µM [inhibitor, full curve, poor fit] | –
52 | COc1ccc(-c2cc(-c3nnc(COC(=O)c4ccc(O)cc4)o3)c3ccccc3n2)cc1OC | inconclusive: 11.2 µM [inhibitor, partial curve, poor fit] | –
53 | COC(=O)C1=C(N)Oc2cc(C)[nH]c(=O)c2C1c1cc(OC)c(OC)c(OC)c1 (stereo not given) | inconclusive: 0.501 µM [activator, partial curve, poor fit] | –
54 | c1ccc(Cn2cnc3ccccc32)cc1 | inconclusive: 9.2 µM [activator, partial curve, poor fit] | –
55 | Cc1cccc(C(=O)O/N=C(\N)Cc2ccc([N+](=O)[O-])cc2)c1 | inconclusive: 35.5 µM [inhibitor, single point] | –
56 | N#CC1=C(N)S[C@H](C(=O)C23CC4CC(CC(C4)C2)C3)[C@H]1c1ccncc1 | inconclusive: 35.5 µM [inhibitor, partial curve, poor fit] | –
57 | CC(C)Cn1c(-c2ccncc2)n[nH]c1=S | inconclusive: 20 µM [inhibitor, partial curve, poor fit] | –
58 | COC(=O)c1ccc(/C=N/Nc2nc(-c3ccccc3)cs2)cc1 | – | inactive: 11.5%
59 | O=C(NCc1ccncc1)c1nc(-c2cccs2)no1 | inconclusive: 4.47 µM [activator, full curve] | –
60 | CCC(=O)c1ccc(OCC(=O)OCC(=O)NCC2CCCO2)cc1 (stereo not given) | – | inactive: 26.5% [at 46.1 µM]
61 | O=C(CN1CCOCC1)c1ccc2cc[nH]c2c1 | – | inactive: 0.201%
62 | COC(=O)c1cc2oc3ccccc3c2n1CC(=O)Nc1cccc(SC)c1 | inconclusive: 3.16 µM [inhibitor, single point] | –
63 | CCOc1ccc2oc(C(=O)N3CCCN(C)CC3)c(C)c2c1 | inconclusive: 2.82 µM [activator, full curve, poor fit] | –
64 | Cc1cccc(C(=O)N2CCNC(=O)C2CC(=O)Nc2ccc(F)cc2)c1 (stereo not given) | – | inactive: -22.4% [at 46.1 µM]
65 | CCN=C1S/C(=C\c2ccc(O)c(OCC)c2)C(=O)N1CC | inconclusive: 15.8 µM [inhibitor, partial curve, poor fit] | –

From entry 54 as far as 58, as listed above:
Row | SMILES | Potency | activity change, negative = inhibition
54 | c1ccc(Cn2cnc3ccccc32)cc1 | inconclusive: 9.2 µM [activator, partial curve, poor fit] | –
55 | Cc1cccc(C(=O)O/N=C(\N)Cc2ccc([N+](=O)[O-])cc2)c1 | inconclusive: 35.5 µM [inhibitor, single point] | –
56 | N#CC1=C(N)S[C@H](C(=O)C23CC4CC(CC(C4)C2)C3)[C@H]1c1ccncc1 | inconclusive: 35.5 µM [inhibitor, partial curve, poor fit] | –
57 | CC(C)Cn1c(-c2ccncc2)n[nH]c1=S | inconclusive: 20 µM [inhibitor, partial curve, poor fit] | –
58 | COC(=O)c1ccc(/C=N/Nc2nc(-c3ccccc3)cs2)cc1 | – | inactive: 11.5%
